{
  "source": "patent US20230304031A1",
  "about": "“VECTORS AND METHODS FOR IN VIVO TRANSDUCTION” (Abintus Bio, Inc., priority 2020, published 2023)",
  "origin": "cited, not measured here",
  "key": {"HSCs": {"system": "HSCs", "settings": "regimens as worded; cited from earlier work"}, "HSPC": {"system": "HSPC", "settings": "cited from earlier work"}},
  "note": "Counter-ions that a name gives are not always drawn. At least one compound was matched to its structure with a doubt left.",
  "data": [
    {"smiles": "CCCc1nn(C)c2c(=O)[nH]c(-c3cc(S(=O)(=O)N4CCN(C)CC4)ccc3OCC)nc12", "note": "[Sildenafil citrate]", "values": [
      {"measurement": "HSC mobilization (comparison in words)", "setting": "HSCs", "value": "not more effective than 3 mg/kg"},
      {"measurement": "HSC mobilization", "setting": "HSPC; 2-h regimen, single oral dose combined with a single injection of AMD3100", "value": "efficient HSC mobilization at levels rivaling the standard-of-care 5-day regimen of G-CSF"}
    ]},
    {"smiles": "Cc1cnc(NC(=O)C2=C(O)c3ccccc3S(=O)(=O)N2C)s1", "note": "[meloxicam]", "values": [
      {"measurement": "G-CSF-induced HSPC mobilization with NSAID", "setting": "HSPC; blocking of PGE2 production", "value": "doubled"}
    ]}
  ]
}
